From PMC7279049

Tests used:
[1] = molecular target: EDEM1 mutant lacking the IDR (∆-EDEM1); experiment: affinity purification with mass spectrometry; HEK293T overexpressing EDEM1 or ∆-EDEM1, lysed in Triton X-100 or Digitonin buffer; immunoprecipitation with rabbit anti-EDEM1 antibodies, LC-MS/MS; spectral counts after subtraction of the empty-vector control (Figure 3A)
[2] = molecular target: T1, ER-degradation enhancing α-mannosidase-like (EDEM1) (UniProt Q92611); experiment: as above
T1 sequence: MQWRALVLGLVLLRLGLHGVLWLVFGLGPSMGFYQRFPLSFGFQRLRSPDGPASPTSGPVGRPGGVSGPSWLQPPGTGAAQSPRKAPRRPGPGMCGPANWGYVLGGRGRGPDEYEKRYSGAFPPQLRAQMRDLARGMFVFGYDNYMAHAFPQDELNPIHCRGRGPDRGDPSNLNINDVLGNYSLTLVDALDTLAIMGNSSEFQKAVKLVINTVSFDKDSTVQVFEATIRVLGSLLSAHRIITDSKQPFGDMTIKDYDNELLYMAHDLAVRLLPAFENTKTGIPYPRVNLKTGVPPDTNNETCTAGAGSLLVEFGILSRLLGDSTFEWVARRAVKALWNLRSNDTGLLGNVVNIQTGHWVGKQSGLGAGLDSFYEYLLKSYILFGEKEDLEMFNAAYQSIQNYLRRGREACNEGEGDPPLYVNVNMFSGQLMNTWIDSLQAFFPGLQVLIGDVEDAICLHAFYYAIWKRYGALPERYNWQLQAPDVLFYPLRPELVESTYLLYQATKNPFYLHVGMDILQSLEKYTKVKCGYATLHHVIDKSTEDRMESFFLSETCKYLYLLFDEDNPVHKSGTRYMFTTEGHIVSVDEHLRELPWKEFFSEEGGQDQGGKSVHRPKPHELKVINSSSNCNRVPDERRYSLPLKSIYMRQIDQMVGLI

[3] = molecular target: T1, ER-degradation enhancing α-mannosidase-like (EDEM1); experiment: affinity purification with mass spectrometry; HEK293T overexpressing EDEM1 or an empty vector, lysed in 1% Triton X-100 buffer; immunoprecipitation with anti-EDEM1 antibodies, SDS-PAGE, in-gel digestion, LC-MS/MS; LFQ values of three biological replicates, t-test with permutation-based FDR, hierarchical clustering of GO-selected proteins (Figure 1A,B)

Measured: binding

B1: ERdj5 (DNAJC10) (protein, UniProt Q8IXB1 33-793)
chain: DQDFYSLLGVSKTASSREIRQAFKKLALKLHPDKNPNNPNAHGDFLKINRAYEVLKDEDLRKKYDKYGEKGLEDNQGGQYESWNYYRYDFGIYDDDPEIITLERREFDAAVNSGELWFVNFYSPGCSHCHDLAPTWRDFAKEVDGLLRIGAVNCGDDRMLCRMKGVNSYPSLFIFRSGMAPVKYHGDRSKESLVSFAMQHVRSTVTELWTGNFVNSIQTAFAAGIGWLITFCSKGGDCLTSQTRLRLSGMLDGLVNVGWMDCATQDNLCKSLDITTSTTAYFPPGATLNNKEKNSILFLNSLDAKEIYLEVIHNLPDFELLSANTLEDRLAHHRWLLFFHFGKNENSNDPELKKLKTLLKNDHIQVGRFDCSSAPDICSNLYVFQPSLAVFKGQGTKEYEIHHGKKILYDILAFAKESVNSHVTTLGPQNFPANDKEPWLVDFFAPWCPPCRALLPELRRASNLLYGQLKFGTLDCTVHEGLCNMYNIQAYPTTVVFNQSNIHEYEGHHSAEQILEFIEDLMNPSVVSLTPTTFNELVTQRKHNEVWMVDFYSPWCHPCQVLMPEWKRMARTLTGLINVGSIDCQQYHSFCAQENVQRYPEIRFFPPKSNKAYHYHSYNGWNRDAYSLRIWGLGFLPQVSTDLTPQTFSEKVLQGKNHWVIDFYAPWCGPCQNFAPEFELLARMIKGKVKAGKVDCQAYAQTCQKAGIRAYPTVKFYFYERAKRNFQEEQINTRDAKAIAALISEKLETLRNQGKRNKDEL
binds: all assays above

No constants are given. Whether binding was seen depends on the method and setting. Binding seen in cells or lysates may run through a third protein. These calls come from enrichment with a bait or labelling near it, and not all partners need be listed.
